Data taken from PMC4552561.
These are yes or no findings as the source states them, for the method shown. For part of these data: In cells and extracts the contact can be indirect. Some binding calls cover weakened binding; strength is not graded here. One block for each substance: values may come before it.

The chains behind the UniProt entries cited, without tags or fusion partners. Where a name states a change or a piece, a line headed by the entry shows the natural chain unless it says otherwise. Residues count along the entry.
UniProt Q9GZQ4: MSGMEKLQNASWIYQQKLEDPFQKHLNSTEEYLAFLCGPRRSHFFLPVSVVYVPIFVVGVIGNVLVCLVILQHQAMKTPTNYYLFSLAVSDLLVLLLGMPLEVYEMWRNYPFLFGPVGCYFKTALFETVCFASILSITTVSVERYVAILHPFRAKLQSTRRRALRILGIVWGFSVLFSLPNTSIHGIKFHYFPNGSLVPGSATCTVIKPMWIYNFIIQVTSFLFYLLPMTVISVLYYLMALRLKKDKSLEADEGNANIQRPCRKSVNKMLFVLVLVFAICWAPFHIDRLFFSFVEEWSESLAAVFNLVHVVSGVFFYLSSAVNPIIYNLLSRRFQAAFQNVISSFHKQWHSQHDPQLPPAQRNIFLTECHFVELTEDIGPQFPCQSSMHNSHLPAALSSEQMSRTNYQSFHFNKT
UniProt Q9HB89, residues 17-426: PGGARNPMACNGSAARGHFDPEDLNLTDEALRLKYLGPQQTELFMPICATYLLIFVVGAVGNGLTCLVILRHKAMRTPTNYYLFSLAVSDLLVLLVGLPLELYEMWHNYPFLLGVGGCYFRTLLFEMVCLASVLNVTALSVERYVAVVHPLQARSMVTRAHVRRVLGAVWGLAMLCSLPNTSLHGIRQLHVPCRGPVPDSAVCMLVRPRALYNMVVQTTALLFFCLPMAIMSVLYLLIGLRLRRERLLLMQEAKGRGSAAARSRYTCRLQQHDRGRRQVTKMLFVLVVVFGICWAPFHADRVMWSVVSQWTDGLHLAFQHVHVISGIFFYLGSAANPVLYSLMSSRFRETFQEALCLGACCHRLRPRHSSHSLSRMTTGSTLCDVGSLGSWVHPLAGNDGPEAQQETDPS
UniProt P22888, residues 27-699: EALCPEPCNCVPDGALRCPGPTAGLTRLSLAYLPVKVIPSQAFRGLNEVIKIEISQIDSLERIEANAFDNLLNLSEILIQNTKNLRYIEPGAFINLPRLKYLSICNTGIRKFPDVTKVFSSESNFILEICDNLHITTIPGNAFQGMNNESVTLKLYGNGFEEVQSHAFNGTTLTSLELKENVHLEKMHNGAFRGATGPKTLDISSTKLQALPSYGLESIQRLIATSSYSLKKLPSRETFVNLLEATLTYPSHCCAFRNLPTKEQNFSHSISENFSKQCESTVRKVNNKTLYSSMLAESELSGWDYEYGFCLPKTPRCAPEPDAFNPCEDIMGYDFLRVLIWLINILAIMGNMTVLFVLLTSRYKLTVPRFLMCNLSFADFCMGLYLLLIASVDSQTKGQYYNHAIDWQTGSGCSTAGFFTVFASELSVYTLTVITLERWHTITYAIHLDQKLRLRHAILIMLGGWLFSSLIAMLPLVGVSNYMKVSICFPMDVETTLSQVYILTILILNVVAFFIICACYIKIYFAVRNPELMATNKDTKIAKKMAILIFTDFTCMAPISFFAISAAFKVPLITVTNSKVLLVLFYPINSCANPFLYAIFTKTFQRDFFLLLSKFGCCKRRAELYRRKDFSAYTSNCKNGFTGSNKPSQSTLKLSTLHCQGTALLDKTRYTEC

Assays:
GFP-NMUR2 (human) = GFP-NMUR2 (human) (UniProt Q9GZQ4); test: FRET or BRET; acceptor photobleaching FRET by confocal microscopy; eGFP-tagged and DsRed-tagged receptors co-expressed in HEK-293T cells, fixed; DsRed bleached at 543 nm for 3 mins
[1] = molecular target: N-terminal FLAG-tagged NMUR1 (human) (UniProt Q9HB89); test: non-reducing and reducing SDS-PAGE with Western blot; extracts of 293T cells transfected with one FLAG-tagged receptor, extracted in mild conditions without boiling; non-reducing against reducing conditions; blot against the FLAG epitope; bands around 80 kDa and 40 kDa
[2] = molecular target: N-terminal FLAG-tagged NMUR2 (human) (UniProt Q9GZQ4); test: as above

binding (GFP-NMUR2 (human)): no binding
Substance: DsRed-luteinizing hormone receptor (from UniProt P22888 27-699)

binding [1]: binds
Substance: N-terminal FLAG-tagged NMUR1 (from UniProt Q9HB89 17-426) (receptor)

binding [2]: binds
Substance: N-terminal FLAG-tagged NMUR2 (from UniProt Q9GZQ4 19-415) (receptor)
